Results: PMC5485956
No constants are given. Whether binding was seen depends on the method and setting. Binding seen in cells or lysates may run through a third protein. Some entries that bind do so weakly or less than the wild type.

Chains of the proteins cited; added tags and fusions are not shown.
UniProt P63092: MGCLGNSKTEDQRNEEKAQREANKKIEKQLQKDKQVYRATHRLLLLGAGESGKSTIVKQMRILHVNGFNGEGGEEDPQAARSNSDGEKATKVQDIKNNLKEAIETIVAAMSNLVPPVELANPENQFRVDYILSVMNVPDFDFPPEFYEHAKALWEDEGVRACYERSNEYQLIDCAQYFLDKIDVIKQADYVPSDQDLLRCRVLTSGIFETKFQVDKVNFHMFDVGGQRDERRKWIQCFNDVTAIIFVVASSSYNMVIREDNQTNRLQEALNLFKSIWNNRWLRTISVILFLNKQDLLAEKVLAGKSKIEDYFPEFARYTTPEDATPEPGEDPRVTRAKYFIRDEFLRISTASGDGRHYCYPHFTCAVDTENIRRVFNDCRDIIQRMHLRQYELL
UniProt P35408: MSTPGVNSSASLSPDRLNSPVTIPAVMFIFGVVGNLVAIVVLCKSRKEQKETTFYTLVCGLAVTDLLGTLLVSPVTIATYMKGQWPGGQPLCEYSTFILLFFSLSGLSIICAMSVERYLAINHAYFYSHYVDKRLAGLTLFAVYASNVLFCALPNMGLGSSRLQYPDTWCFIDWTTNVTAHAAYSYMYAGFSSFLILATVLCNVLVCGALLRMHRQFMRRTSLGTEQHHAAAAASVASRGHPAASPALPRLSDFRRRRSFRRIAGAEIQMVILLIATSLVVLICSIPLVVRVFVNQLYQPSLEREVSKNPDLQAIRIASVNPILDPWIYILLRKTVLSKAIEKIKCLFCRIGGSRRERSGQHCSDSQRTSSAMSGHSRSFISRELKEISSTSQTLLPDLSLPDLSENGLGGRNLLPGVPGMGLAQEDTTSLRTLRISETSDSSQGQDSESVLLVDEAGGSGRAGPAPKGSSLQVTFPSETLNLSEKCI

Target: Gα-s (human (endogenous in LoVo)) (UniProt P63092)
Test: co-IP; LoVo cells treated with PGE2 (5 or 10 μM, 6 h); lysate (1% Triton X-100, 50 mM HEPES, 150 mM NaCl) precipitated with Gα-s antibody and Protein G PLUS Agarose at 4 °C; immunoblot for Gα-s, EP2 and EP4

- binding: binds
Substance: EP4 (from UniProt P35408 1-488) (receptor)
